{"source": "the supplement of paper PMC8728848", "experiment_in_all_cases": "glycan array binding signal (z-score within array); higher = stronger binding", "details_in_all_cases": "glycan notation: IUPAC condensed, linker removed", "key": {"[1]": {"biological_target": "Gal(b1-3)[Fuc(a1-4)]GlcNAc(b1-3)Gal(b1-4)[Fuc(a1-3)]GlcNAc", "summary_of_the_method": "(§1)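 Glycan array data were curated from 3228 arrays in the Consortium for Functional Glycomics database and kept only where the protein sequence was available. Glycan names were converted to IUPAC-condensed notation, and columns mapping to the same glycan were averaged. The binding signal is a within-array Z-score, averaged across arrays of the same protein sequence at different concentrations or buffers and across linkers. Negative Z-scores can be read as non-binding.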"}, "[2]": {"biological_target": "Gal(b1-3)[Fuc(a1-4)]GlcNAc(b1-6)GalNAc", "summary_of_the_method": "as §1"}, "[3]": {"biological_target": "Gal(b1-3)[GlcNAc(b1-6)]GalNAc", "summary_of_the_method": "as §1"}, "[4]": {"biological_target": "Gal(b1-3)[Neu5Ac(a2-6)]GalNAc", "summary_of_the_method": "as §1"}, "[5]": {"biological_target": "Gal(b1-3)[Neu5Ac(a2-6)]GlcNAc(b1-4)Gal(b1-4)Glc", "summary_of_the_method": "as §1"}, "[6]": {"biological_target": "Gal(b1-3)[Neu5Ac(b2-6)]GalNAc", "summary_of_the_method": "as §1"}, "[7]": {"biological_target": "Gal(b1-4)Gal", "summary_of_the_method": "as §1"}, "[8]": {"biological_target": "Gal(b1-4)GalNAc(a1-3)[Fuc(a1-2)]Gal(b1-4)GlcNAc", "summary_of_the_method": "as §1"}, "[9]": {"biological_target": "Gal(b1-4)GalNAc(b1-3)[Fuc(a1-2)]Gal(b1-4)GlcNAc", "summary_of_the_method": "as §1"}, "[10]": {"biological_target": "Gal(b1-4)Glc", "summary_of_the_method": "as §1"}, "[11]": {"biological_target": "Gal(b1-4)Glc6S", "summary_of_the_method": "as §1"}, "[12]": {"biological_target": "Gal(b1-4)GlcNAc", "summary_of_the_method": "as §1"}, "[13]": {"biological_target": "Gal(b1-4)GlcNAc(a1-6)Gal(b1-4)GlcNAc", "summary_of_the_method": "as §1"}, "[14]": {"biological_target": "Gal(b1-4)GlcNAc(b1-2)Man", "summary_of_the_method": "as §1"}, "[15]": {"biological_target": "Gal(b1-4)GlcNAc(b1-2)Man(a1-3)Man(b1-4)GlcNAc(b1-4)GlcNAc", "summary_of_the_method": "as §1"}, "[16]": {"biological_target": "Gal(b1-4)GlcNAc(b1-2)Man(a1-3)[Gal(b1-4)GlcNAc(b1-2)Man(a1-6)]Man(b1-4)GlcNAc(b1-4)GlcNAc", "summary_of_the_method": "as §1"}, "[17]": {"biological_target": "Gal(b1-4)GlcNAc(b1-2)Man(a1-3)[Gal(b1-4)GlcNAc(b1-2)Man(a1-6)]Man(b1-4)GlcNAc(b1-4)[Fuc(a1-6)]GlcNAc", "summary_of_the_method": "as §1"}, "[18]": {"biological_target": "Gal(b1-4)GlcNAc(b1-2)Man(a1-3)[Gal(b1-4)GlcNAc(b1-2)Man(a1-6)][Gal(b1-4)GlcNAc(b1-4)]Man(b1-4)GlcNAc(b1-4)[Fuc(a1-6)]GlcNAc", "summary_of_the_method": "as §1"}, "[19]": {"biological_target": "Gal(b1-4)GlcNAc(b1-2)Man(a1-3)[Gal(b1-4)GlcNAc(b1-2)Man(a1-6)][GlcNAc(b1-4)]Man(b1-4)GlcNAc(b1-4)[Fuc(a1-6)]GlcNAc", "summary_of_the_method": "as §1"}, "[20]": {"biological_target": "Gal(b1-4)GlcNAc(b1-2)Man(a1-3)[GlcNAc(b1-2)Man(a1-6)]Man(b1-4)GlcNAc(b1-4)GlcNAc", "summary_of_the_method": "as §1"}, "[21]": {"biological_target": "Gal(b1-4)GlcNAc(b1-2)Man(a1-3)[GlcNAc(b1-4)][Gal(b1-4)GlcNAc(b1-2)Man(a1-6)]Man(b1-4)GlcNAc(b1-4)GlcNAc", "summary_of_the_method": "as §1"}, "[22]": {"biological_target": "Gal(b1-4)GlcNAc(b1-2)Man(a1-3)[Man(a1-6)]Man(b1-4)GlcNAc(b1-4)GlcNAc", "summary_of_the_method": "as §1"}, "[23]": {"biological_target": "Gal(b1-4)GlcNAc(b1-2)Man(a1-6)Man(b1-4)GlcNAc(b1-4)GlcNAc", "summary_of_the_method": "as §1"}, "[24]": {"biological_target": "Gal(b1-4)GlcNAc(b1-2)Man(a1-6)[GlcNAc(b1-2)Man(a1-3)]Man(b1-4)GlcNAc(b1-4)GlcNAc", "summary_of_the_method": "as §1"}, "[25]": {"biological_target": "Gal(b1-4)GlcNAc(b1-2)Man(a1-6)[Man(a1-3)]Man(b1-4)GlcNAc(b1-4)GlcNAc", "summary_of_the_method": "as §1"}, "[26]": {"biological_target": "Gal(b1-4)GlcNAc(b1-2)[Gal(b1-4)GlcNAc(b1-4)]Man(a1-3)[Gal(b1-4)GlcNAc(b1-2)Man(a1-6)]Man(b1-4)GlcNAc(b1-4)GlcNAc", "summary_of_the_method": "as §1"}, "[27]": {"biological_target": "Gal(b1-4)GlcNAc(b1-2)[Gal(b1-4)GlcNAc(b1-4)]Man(a1-3)[Gal(b1-4)GlcNAc(b1-2)[Gal(b1-4)GlcNAc(b1-6)]Man(a1-6)]Man(b1-4)GlcNAc(b1-4)GlcNAc", "summary_of_the_method": "as §1"}, "[28]": {"biological_target": "Gal(b1-4)GlcNAc(b1-2)[Gal(b1-4)GlcNAc(b1-4)]Man(a1-3)[GlcNAc(b1-4)][Gal(b1-4)GlcNAc(b1-2)Man(a1-6)]Man(b1-4)GlcNAc(b1-4)GlcNAc", "summary_of_the_method": "as §1"}, "[29]": {"biological_target": "Gal(b1-4)GlcNAc(b1-2)[Gal(b1-4)GlcNAc(b1-4)]Man(a1-3)[GlcNAc(b1-4)][Gal(b1-4)GlcNAc(b1-2)[Gal(b1-4)GlcNAc(b1-6)]Man(a1-6)]Man(b1-4)GlcNAc(b1-4)GlcNAc", "summary_of_the_method": "as §1"}, "[30]": {"biological_target": "Gal(b1-4)GlcNAc(b1-2)[Gal(b1-4)GlcNAc(b1-6)]Man(a1-6)[Gal(b1-4)GlcNAc(b1-2)Man(a1-3)]Man(b1-4)GlcNAc(b1-4)GlcNAc", "summary_of_the_method": "as §1"}, "[31]": {"biological_target": "Gal(b1-4)GlcNAc(b1-2)[Gal(b1-4)GlcNAc(b1-6)]Man(a1-6)[Gal(b1-4)GlcNAc(b1-2)Man(a1-3)]Man(b1-4)GlcNAc(b1-4)[Fuc(a1-6)]GlcNAc", "summary_of_the_method": "as §1"}, "[32]": {"biological_target": "Gal(b1-4)GlcNAc(b1-2)[Gal(b1-4)GlcNAc(b1-6)]Man(a1-6)[GlcNAc(b1-4)][Gal(b1-4)GlcNAc(b1-2)Man(a1-3)]Man(b1-4)GlcNAc(b1-4)GlcNAc", "summary_of_the_method": "as §1"}, "[33]": {"biological_target": "Gal(b1-4)GlcNAc(b1-2)[Gal(b1-4)GlcNAc(b1-6)]Man(a1-6)[GlcNAc(b1-4)][Gal(b1-4)GlcNAc(b1-2)[Gal(b1-4)GlcNAc(b1-4)]Man(a1-3)]Man(b1-4)GlcNAc(b1-4)[Fuc(a1-6)]GlcNAc", "summary_of_the_method": "as §1"}, "[34]": {"biological_target": "Gal(b1-4)GlcNAc(b1-3)Gal(b1-3)GalNAc", "summary_of_the_method": "as §1"}, "[35]": {"biological_target": "Gal(b1-4)GlcNAc(b1-3)Gal(b1-3)GlcNAc", "summary_of_the_method": "as §1"}, "[36]": {"biological_target": "Gal(b1-4)GlcNAc(b1-3)Gal(b1-4)Glc", "summary_of_the_method": "as §1"}, "[37]": {"biological_target": "Gal(b1-4)GlcNAc(b1-3)Gal(b1-4)GlcNAc", "summary_of_the_method": "as §1"}, "[38]": {"biological_target": "Gal(b1-4)GlcNAc(b1-3)Gal(b1-4)GlcNAc(b1-2)Man(a1-3)[Gal(b1-4)GlcNAc(b1-3)Gal(b1-4)GlcNAc(b1-2)Man(a1-6)]Man(b1-4)GlcNAc(b1-4)GlcNAc", "summary_of_the_method": "as §1"}}, "note": "The list shows a part of the results.", "data": [{"binder": "HA-61200 (Pseudomonas aeruginosa), Q02SP8_PSEAB (protein) MNKCYALVWNVSQGCWNVVSEGSRRRGKPAGAKAAIASVLALLGATALAPAYALPSGGTVVGGSANGEIHLSGGNSLSVNQKVDKLIANWDSFSVAAGERVIFNQPSSSSIALNRVIGTKASDIQGRIDANGQVFLVNPNGVLFGRGAQVNVGGLVASTLDITDAEFNGNSSRYRFTGPSTNGVLNHGGAITAAEGGSIALLGAQVDNRGTVLAQMGGVGLGAGSDLTLNFDGNKLLDIRVDAGVANALASNGGLLKADGGRVLMAARTANALLNTVVNSQGAIEARSLRGKNGRIVLDG", "values": [{"measurement": "glycan array binding signal (z-score)", "setting": "[1]", "result": -0.62}, {"measurement": "glycan array binding signal (z-score)", "setting": "[2]", "result": -0.005}, {"measurement": "glycan array binding signal (z-score)", "setting": "[3]", "result": -0.146}, {"measurement": "glycan array binding signal (z-score)", "setting": "[4]", "result": -0.393}, {"measurement": "glycan array binding signal (z-score)", "setting": "[5]", "result": -0.176}, {"measurement": "glycan array binding signal (z-score)", "setting": "[6]", "result": -1.35}, {"measurement": "glycan array binding signal (z-score)", "setting": "[7]", "result": -0.639}, {"measurement": "glycan array binding signal (z-score)", "setting": "[8]", "result": -0.022}, {"measurement": "glycan array binding signal (z-score)", "setting": "[9]", "result": -0.396}, {"measurement": "glycan array binding signal (z-score)", "setting": "[10]", "result": -0.3}, {"measurement": "glycan array binding signal (z-score)", "setting": "[11]", "result": -0.864}, {"measurement": "glycan array binding signal (z-score)", "setting": "[12]", "result": 0.232}, {"measurement": "glycan array binding signal (z-score)", "setting": "[13]", "result": -0.452}, {"measurement": "glycan array binding signal (z-score)", "setting": "[14]", "result": 0.168}, {"measurement": "glycan array binding signal (z-score)", "setting": "[15]", "result": -0.669}, {"measurement": "glycan array binding signal (z-score)", "setting": "[16]", "result": -0.964}, {"measurement": "glycan array binding signal (z-score)", "setting": "[17]", "result": 0.08}, {"measurement": "glycan array binding signal (z-score)", "setting": "[18]", "result": -0.382}, {"measurement": "glycan array binding signal (z-score)", "setting": "[19]", "result": -0.721}, {"measurement": "glycan array binding signal (z-score)", "setting": "[20]", "result": -0.742}, {"measurement": "glycan array binding signal (z-score)", "setting": "[21]", "result": -0.203}, {"measurement": "glycan array binding signal (z-score)", "setting": "[22]", "result": -0.922}, {"measurement": "glycan array binding signal (z-score)", "setting": "[23]", "result": -0.572}, {"measurement": "glycan array binding signal (z-score)", "setting": "[24]", "result": 0.028}, {"measurement": "glycan array binding signal (z-score)", "setting": "[25]", "result": -0.465}, {"measurement": "glycan array binding signal (z-score)", "setting": "[26]", "result": -0.262}, {"measurement": "glycan array binding signal (z-score)", "setting": "[27]", "result": -0.145}, {"measurement": "glycan array binding signal (z-score)", "setting": "[28]", "result": -0.424}, {"measurement": "glycan array binding signal (z-score)", "setting": "[29]", "result": 1.45}, {"measurement": "glycan array binding signal (z-score)", "setting": "[30]", "result": 1.7}, {"measurement": "glycan array binding signal (z-score)", "setting": "[31]", "result": 0.538}, {"measurement": "glycan array binding signal (z-score)", "setting": "[32]", "result": 0.379}, {"measurement": "glycan array binding signal (z-score)", "setting": "[33]", "result": -0.101}, {"measurement": "glycan array binding signal (z-score)", "setting": "[34]", "result": -0.391}, {"measurement": "glycan array binding signal (z-score)", "setting": "[35]", "result": 0.257}, {"measurement": "glycan array binding signal (z-score)", "setting": "[36]", "result": -0.679}, {"measurement": "glycan array binding signal (z-score)", "setting": "[37]", "result": -0.105}, {"measurement": "glycan array binding signal (z-score)", "setting": "[38]", "result": 0.248}]}]}
